Assay in all cases: pull-down
Data set [1] deals with PSA (prostate specific antigen) (UniProt P07288). Conditions: 5-BzdU (5-(N-benzylcarboxyamide)-2'-deoxyuridine) at positions printed as 5 (n in listing) [n positions 6,7,8,10,13,14,15,16,28,33,34,39,40,42 = modified dU]; 10% FBS or HEK293T lysate, 1 mM dextran sulfate; MALDI-MS confirmed; purified recombinant protein; label: biotin; single-stranded DNA.
A further data set deals with EGFR (UniProt P00533). Conditions: 5-NapdU (5-(N-naphthylcarboxyamide)-2'-deoxyuridine) at positions printed as 6 (n in listing) [n positions 14,15,17,22,24,27,31,33,37,38,39,44 = modified dU], label: biotin, or NH2/SH coupled to beads, single-stranded DNA.
A further data set addresses AKT2 (Homo sapiens) (UniProt P31751). The following applies: 5-BzdU (5-(N-benzylcarboxyamide)-2'-deoxyuridine) at positions printed as 5 (n in listing) [n positions 7,8,9,14,15,16,18,21,26,27,30,32,40,41,42,44 = modified dU]; MCF7 lysate; Western with anti-Akt and MS (Mascot score 72, 4 peptides); protein in an extract; protein details: endogenous, MCF7 cell lysate; label: SH coupled to magnetic agarose beads; single-stranded DNA.

Amino acid sequences for entries named in this document (tags omitted). A change or cut given only in a name is not applied to a line headed by its entry. Residues count along the entry.
UniProt P07288, 25-261: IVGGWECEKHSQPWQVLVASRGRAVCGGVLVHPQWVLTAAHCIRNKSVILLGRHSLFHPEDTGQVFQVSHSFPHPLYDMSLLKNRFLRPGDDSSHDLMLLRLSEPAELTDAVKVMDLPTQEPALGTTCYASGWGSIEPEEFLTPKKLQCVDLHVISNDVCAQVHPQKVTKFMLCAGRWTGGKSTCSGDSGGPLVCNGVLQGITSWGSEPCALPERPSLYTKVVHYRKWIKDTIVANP
UniProt P31751: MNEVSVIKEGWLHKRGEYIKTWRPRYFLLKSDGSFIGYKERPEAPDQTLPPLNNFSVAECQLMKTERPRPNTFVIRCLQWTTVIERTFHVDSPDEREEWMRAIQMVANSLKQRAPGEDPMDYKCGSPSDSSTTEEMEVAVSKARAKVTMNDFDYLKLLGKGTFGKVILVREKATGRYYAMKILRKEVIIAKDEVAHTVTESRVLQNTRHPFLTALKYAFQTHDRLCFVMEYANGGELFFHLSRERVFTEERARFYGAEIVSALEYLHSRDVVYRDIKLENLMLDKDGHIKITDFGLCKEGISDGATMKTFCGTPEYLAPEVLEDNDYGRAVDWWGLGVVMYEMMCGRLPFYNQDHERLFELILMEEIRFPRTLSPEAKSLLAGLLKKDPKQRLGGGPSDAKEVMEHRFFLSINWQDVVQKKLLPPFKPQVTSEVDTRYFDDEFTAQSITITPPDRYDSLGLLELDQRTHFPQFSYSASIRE

In data set [2] the test system is Insulin receptor (IR) (Homo sapiens). The following applies: 5-BzdU (5-(N-benzylcarboxyamide)-2'-deoxyuridine) at positions printed as 5 (n in listing) [n positions 6,11,12,13,18,19,24,27,30,33,35,41 = modified dU]; captures alpha and beta subunits; eluted by free aptamer or 20 mM EDTA; Western and MALDI-MS confirmed; protein in a lysate after overexpression; protein details: Rat-1 cells stably expressing human IR; label: biotin, or SH coupled to beads; single-stranded DNA.

The next data set has as its system Insulin receptor (IR). The following applies: 5-BzdU (5-(N-benzylcarboxyamide)-2'-deoxyuridine) at positions printed as 5 (n in listing) [n positions 6,11,12,13,18,19,24,27,30,33,35,41 = modified dU]; 10% FBS or HEK293T lysate, 1 mM dextran sulfate; MALDI-MS confirmed; purified recombinant protein; label: biotin, or SH coupled to beads; single-stranded DNA.
The target of the next data set is ErbB2 (HER2) (UniProt P04626). The following applies: 5-NapdU (5-(N-naphthylcarboxyamide)-2'-deoxyuridine) at positions printed as 6 (n in listing) [n positions 1,4,9,11,12,16,24,25,26,29,30 = modified dU], label: biotin, or NH2/SH coupled to beads, single-stranded DNA.

The record followed here is patent publication US20130059292.

For some assays here: At least one result comes from cells or an extract, where the contact may be indirect. For some assays here: The exact form of at least one protein or probe is not confirmed.

On to “ACGAGTTTGTGGTTTTGGACAGGCAGCTGACGTTGGGCTTCTCGCAACA [PSA aptamer #1660-07]”, for which the binding result in data set [1] was “binds”.

In the case of “AGTTCAGCCCCGGTTATACGGTCTCATGCCTGTGCGTTTAACCTAGACCA [EGFR aptamer #1193-50]”, the binding result with EGFR (5 mM Mg2+ lysis buffer, needs salmon sperm DNA or dextran sulfate competitor (no significant EGFR band without, p104), eluted by 20 mM EDTA 60 C, DNase I or Exo I, protein in an extract, protein details: endogenous, A431 cell lysate) is “binds”; in the data set with EGFR (spiked in 10% FBS or HEK293T lysate, 1 mM dextran sulfate or other polyanions, dose dependent on aptamer beads, purified recombinant protein), “binds”.

Consider “AGTTCCTTTACCCTTTGTGGTCGACTTCCTATGGAGGAGTTTATGGACCA [Akt aptamer #2153-02-02]”, for which the binding result in the data set with AKT2 (Homo sapiens) is “binds”.

For “GCCTGTAAGGTTTAAGCTTGGCCTAATGGTGCTATCAGGCTC [IR aptamer #1652-36]”, the binding result (in data set [2]; in the data set on Insulin receptor (IR)) was “binds” throughout.

Consider “TCCTGGCATGTTCGATGGAGGCCTTTGATTACAGCCCAGA [ErbB2 aptamer #1194-34]”, for which the binding result with ErbB2 (HER2) (10% FBS or HEK293T lysate, 1 mM dextran sulfate, dose dependent on aptamer beads, purified recombinant protein) is given as “binds”; in the data set with ErbB2 (HER2) (eluted by free ErbB2 aptamer or 20 mM EDTA, MALDI-MS confirmed, protein in a lysate after overexpression, protein details: MCF7 cells stably expressing human ERBB2), “binds”.
